# The list shows a part of the results. Most values lie within the scatter of the assay; repeated measurements hardly agree.
# By UniProt entry, the sequences of proteins in these tests, tags left out.
# UniProt Q15717, whole entry: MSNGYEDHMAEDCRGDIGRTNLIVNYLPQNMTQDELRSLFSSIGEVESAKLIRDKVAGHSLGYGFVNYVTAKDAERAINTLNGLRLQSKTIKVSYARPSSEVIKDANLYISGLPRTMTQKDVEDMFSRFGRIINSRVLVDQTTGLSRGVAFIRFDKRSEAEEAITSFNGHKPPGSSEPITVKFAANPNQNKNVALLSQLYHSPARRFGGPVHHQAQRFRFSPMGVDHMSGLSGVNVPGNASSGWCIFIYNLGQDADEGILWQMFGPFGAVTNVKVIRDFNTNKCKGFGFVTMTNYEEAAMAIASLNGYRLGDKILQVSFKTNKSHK
# Target: HuR (ELAVL1) - TNFalpha ARE RNA complex (UniProt Q15717)
# Experiment: AlphaScreen HuR-RNA complex signal Z-score relative to positive (Bi-TNF, DMSO) controls (Z-score (SD units of positive control)); higher = more complex signal
# Settings: screen stage: primary screen; compound concentration: 25 nM
row,SMILES,AlphaScreen HuR-RNA complex signal Z-score
1,C=C1CC[C@H](O)C/C1=C/C=C1\CCC[C@]2(C)[C@@H]([C@H](C)CCCC(C)C)CC[C@@H]12,-0.298
2,NNCCc1ccccc1,-5.48
3,CC(=O)S[C@@H]1CC2=CC(=O)CC[C@]2(C)[C@H]2CC[C@@]3(C)[C@@H](CC[C@@]34CCC(=O)O4)[C@H]12,8.41
4,CCCc1cc(C(N)=S)ccn1,1.09
5,CC(Cc1cccc(C(F)(F)F)c1)NCCOC(=O)c1ccccc1 (stereo unspecified),1.89
6,COc1ccc2c(=O)c(OC)c(-c3ccccc3)oc2c1,0.408
7,CN1CCC(=C2c3ccccc3C=Cc3ccccc32)CC1,1.67
8,COc1ccc(-c2cc(=O)c3ccccc3o2)cc1,2.88
9,N=C(N)NC(=N)NCCc1ccccc1,2
10,CC(C)(CO)[C@@H](O)C(=O)NCCC(=O)NCCSSCCNC(=O)CCNC(=O)[C@H](O)C(C)(C)CO,0.969
11,CN1CCN(CC/C=C2/c3ccccc3Sc3ccc(S(=O)(=O)N(C)C)cc32)CC1,-5.35
12,CC[C@H](/C=C/[C@@H](C)[C@H]1CC[C@H]2[C@@H]3CC=C4C[C@@H](O)CC[C@]4(C)[C@H]3CC[C@]12C)C(C)C,1.32
13,CC(=O)OCC(=O)[C@@]1(O)[C@@H](C)C[C@H]2[C@@H]3CCC4=CC(=O)C=C[C@]4(C)[C@@]3(F)[C@@H](O)C[C@@]21C,2.76
14,CC(=O)Oc1ccc2c(c1OC(C)=O)OCC1(O)Cc3c(cc(OC(C)=O)c(OC(C)=O)c3OC(C)=O)C21 (stereo unspecified),1
15,COc1c2occc2cc2ccc(=O)oc12,1.38
16,N=C(NCCCCCCNC(=N)NC(=N)Nc1ccc(Cl)cc1)NC(=N)Nc1ccc(Cl)cc1,-3.7
17,COC(=O)c1cc(O)c(=O)c2c(O)c(O)ccc2c1,2.04
18,C[N+]1(C)CCC(OC(=O)C(O)(c2ccccc2)C2CCCC2)C1 (stereo unspecified),1.7
19,CCCCCCCCCCCCCCCCCCOCC(O)CO (stereo unspecified),1.61
20,CCCCCc1c2c(cc(O)c1C(=O)O)OC(=O)c1c(cc(OC)cc1C(=O)CCCC)O2,0.421
21,COC1=C[C@@H](C)[C@@H]2C[C@H]3OC(=O)C[C@H]4C(C)=C(OC)C(=O)[C@H]([C@@]2(C)C1=O)[C@@]34C,1.5
22,COc1ccc([C@@H]2CC(=O)c3c(O)cc(O)cc3O2)cc1O,1.18
23,CN(C)CCCN1c2ccccc2Sc2ccc(C(F)(F)F)cc21,0.775

row,SMILES,AlphaScreen HuR-RNA complex signal Z-score
1,Oc1cc(O)c2c(c1)O[C@H](c1ccc(O)c(O)c1)[C@@H](O)C2,2.21
2,CCN(CC)CCOC(=O)C1(C2CCCCC2)CCCCC1,-2.52
3,O=c1cc(-c2ccccc2)oc2c(O)c(O)ccc12,1.9
4,O=C1c2c(O)cccc2Cc2cccc(O)c21,0.282
5,O=S(=O)(O)c1cc(N=C=S)ccc1/C=C/c1ccc(N=C=S)cc1S(=O)(=O)O,1.58
6,CCCCCCCCCCCCCCCC(=O)OCC(O)CO (stereo unspecified),1.46
7,CC[N+](C)(CC)CCOC(=O)C(O)(c1ccccc1)C1CCCCC1 (stereo unspecified),1.59
8,CC(C)NC[C@@H](O)COc1cccc2ccccc12,7.39
9,CCc1cn([C@H]2C[C@H](O)[C@@H](CO)O2)c(=O)[nH]c1=O,1.36
10,C[C@@H]1O[C@@H](O[C@H]2[C@H](Oc3cc(O)c4c(=O)cc(-c5ccc(O)cc5)oc4c3)O[C@H](CO)[C@@H](O)[C@@H]2O)[C@H](O)[C@H](O)[C@H]1O,2.28
11,Cc1c(N(C)CS(=O)(=O)O)c(=O)n(-c2ccccc2)n1C,0.182
12,CN(C)[C@@H]1C(O)=C(C(=O)NCN2CCCC2)C(=O)[C@@]2(O)C(O)=C3C(=O)c4c(O)cccc4[C@@](C)(O)[C@H]3C[C@@H]12,0.484
13,CC(NCCC(c1ccccc1)c1ccccc1)c1ccccc1 (stereo unspecified),1.01
14,COc1cc2c3cc1Oc1c(OC)c(OC)cc4c1[C@@H](Cc1ccc(O)c(c1)Oc1ccc(cc1)C[C@@H]3N(C)CC2)N(C)CC4,0.636
15,C[C@H](CCC(=O)O)[C@H]1CC[C@H]2[C@@H]3[C@H](O)C[C@@H]4C[C@H](O)CC[C@]4(C)[C@H]3CC[C@]12C,1.65
16,NNc1nncc2ccccc12,-1.81
17,O=C(/C=C/c1ccc(O)c(O)c1)OCCc1ccccc1,2.58
18,NCC(O)CC(=O)O (stereo unspecified),3.34
19,COc1c2occc2c(OC)c2c(=O)cc(C)oc12,1.46
20,C1CNCCN1,0.509
21,Nc1cc(C(Cl)=C(Cl)Cl)c(S(N)(=O)=O)cc1S(N)(=O)=O,-8.09
22,CC(=O)O[C@H]1CC[C@@]2(C)[C@@H](CC[C@@H]3[C@@H]2CC(=O)[C@]2(C)[C@@H]4[C@H](C[C@@H]32)O[C@]2(CC[C@@H](C)CO2)[C@H]4C)C1,1.78
23,O=c1oc2ccccc2c(O)c1Cc1c(O)c2ccccc2oc1=O,-2.61

row,SMILES,AlphaScreen HuR-RNA complex signal Z-score
1,COC(=O)/C=C/C(C)=C\C=C\C(C)=C\C=C\C=C(C)\C=C\C=C(C)\C=C\C(=O)O,0.962
2,CN1CCN(CCCN2c3ccccc3Sc3ccc(Cl)cc32)CC1,2.6
3,O=C1c2ccccc2C(=O)c2c1ccc(O)c2O,1.77
4,CC(=O)Oc1cc(OC(C)=O)c2c(c1)O[C@H](c1ccc(OC(C)=O)c(OC(C)=O)c1)[C@H](OC(C)=O)C2,0.105
5,COc1cc(-c2coc3cc(O[C@@H]4O[C@H](CO)[C@@H](O)[C@H](O)[C@H]4O)c(OC)c(O)c3c2=O)cc(O)c1OC,2.24
6,O=c1c(O)c(-c2ccccc2)oc2cc(O)ccc12,1.17
7,O=c1c(O)c(-c2ccc(O)cc2O)oc2cc(O)cc(O)c12,0.296
8,O=C1OCCN1/N=C/c1ccc([N+](=O)[O-])o1,-2.15
9,NC(=O)c1ccc([N+](=O)[O-])cc1Cl,0.745
10,O=C(/C=C/C(=O)Oc1ccccc1C(=O)O)Oc1ccccc1C(=O)O,3.89
11,Cc1c(O)c(=O)ccn1C,0.985
12,c1ccc([C@H]2CN3CCSC3=N2)cc1,1.47
13,CCC(=O)O[C@]1(C(=O)CCl)[C@@H](C)C[C@H]2[C@@H]3CCC4=CC(=O)C=C[C@]4(C)[C@@]3(F)[C@@H](O)C[C@@]21C,1.06
14,O=C1C[C@@H](c2ccc(O)cc2)Oc2cc(O)cc(O)c21,0.644
15,CC(=O)N[C@@H](Cc1c[nH]c2ccccc12)C(N)=O,-0.112
16,CC(C)NCC(O)c1ccc2ccccc2c1 (stereo unspecified),3.78
17,CC(=O)O[C@]1(C(C)=O)CC[C@H]2[C@@H]3C[C@H](C)C4=CC(=O)CC[C@]4(C)[C@H]3CC[C@@]21C,3.31
18,CC(=O)Oc1ccc2c(c1)CCC1C2CC[C@]2(C)C(=O)CCC12 (stereo partly specified),-0.663
19,CN(C)c1nc(N(C)C)nc(N(C)C)n1,0.934
20,NC(=O)C(c1ccccc1)(c1ccccc1)[C@@H]1CCN(CCc2ccc3c(c2)CCO3)C1,-1.3
21,CCCNCC(O)COc1ccccc1C(=O)CCc1ccccc1 (stereo unspecified),1.04
22,O=C(Nc1ccccc1)Nc1ccccc1,1.74
23,O=[N+]([O-])c1cccc2cn[nH]c12,2.7

# Quoted from the listing:
# AlphaScreen HuR-RNA complex signal Z-score with CN(C)c1nc(N(C)C)nc(N(C)C)n1 reads 0.934
# AlphaScreen HuR-RNA complex signal Z-score with O=[N+]([O-])c1cccc2cn[nH]c12 reads 2.7
# AlphaScreen HuR-RNA complex signal Z-score with COC(=O)/C=C/C(C)=C\C=C\C(C)=C\C=C\C=C(C)\C=C\C=C(C)\C=C\C(=O)O reads 0.962

# More structures:

row,SMILES,AlphaScreen HuR-RNA complex signal Z-score
1,COc1ccccc1OCC(O)CN1CCN(CC(=O)Nc2c(C)cccc2C)CC1 (stereo unspecified),-1.2
2,COc1cc([C@@H]2c3cc4c(cc3[C@@H](O[C@@H]3O[C@@H]5CO[C@@H](C)O[C@H]5[C@H](O)[C@H]3O)[C@H]3COC(=O)[C@H]23)OCO4)cc(OC)c1O,0.748
3,C[C@H]1C[C@@H]2[C@H]([C@@H](O)C[C@@]3(C)[C@H]2CC[C@]3(O)C(=O)CO)[C@@]2(C)C=CC(=O)C=C12,4.35
4,CS(=O)(=O)CCCCN=C=S,2.77
5,O=C1CC2(CCCC2)CC(=O)N1CCCCN1CCN(c2ncccn2)CC1,6.8
6,CC[C@H]1OC(=O)[C@H](C)[C@@H](O[C@H]2C[C@@](C)(OC)[C@@H](O)[C@H](C)O2)[C@H](C)[C@@H](O[C@@H]2O[C@H](C)C[C@H](N(C)C)[C@H]2O)[C@](C)(O)C[C@@H](C)[C@@H]2N[C@@H](COCCOC)O[C@H]([C@H]2C)[C@]1(C)O,1.06
7,CC(C)/C(O)=C1/C(=O)O[C@@H](c2ccoc2)[C@]2(C)C(O)[C@@H](O)[C@@]34OC5(C)OC67CC(C)(C(O)[C@]6(O)[C@@H](O)[C@]3(O5)C12)[C@H](CC(=O)O)[C@]74C (stereo partly specified),1.8
8,CC1(C)CC[C@]2(C(=O)O)CC[C@]3(C)C(=CC[C@@H]4[C@@]5(C)CC[C@H](O)[C@@](C)(CO)[C@@H]5CC[C@]43C)[C@@H]2C1,1.34
9,O=c1cc[nH]c(=S)[nH]1,0.946
10,CCC(C(=O)O)c1ccccc1 (stereo unspecified),0.804
11,CCC(=O)c1c(O)cc(O)cc1O,2.02
12,CC1Cc2ccccc2N1NC(=O)c1ccc(Cl)c(S(N)(=O)=O)c1 (stereo unspecified),-0.64
13,CC(=O)O[C@@H]1CC2C(C)(C)C(=O)C3OC3[C@]2(C)C2CC[C@@]3(C)[C@H](c4ccoc4)OC(=O)C4OC43[C@@]21C (stereo partly specified),1.14
14,CO/N=C(\C(=O)N[C@@H]1C(=O)N2C(C(=O)O)=C(COC(N)=O)CS[C@H]12)c1ccco1,0.48
15,Nc1ccc(S(=O)(=O)Nc2ccnn2-c2ccccc2)cc1,1.42
16,COc1c(O)cccc1O,1.47
17,COC(=O)CC[C@@H](C)[C@H]1CC[C@H]2[C@@H]3[C@H](O)C[C@@H]4C[C@H](O)CC[C@]4(C)[C@H]3C[C@H](O)[C@]12C,1.76
18,CCCCCCCCCCCCCCCC(=O)O[C@@H]1[C@@H](O)[C@@H](O)[C@@H]([C@H](NC(=O)[C@@H]2C[C@@H](CCC)CN2C)[C@H](C)Cl)O[C@@H]1SC,2.2
19,Cc1cc(CC(=O)O)n(C)c1C(=O)c1ccc(Cl)cc1,-0.657
20,O=C(O)C1=CCCNC1,1.68
21,CC12CCC(CC1)C(C)(C)O2,2
22,CC(C)C[C@@H]1NC(=O)[C@H](CCCN)NC(=O)[C@H](C(C)C)NC(=O)[C@H](Cc2ccc(O)cc2)N[C@@H](CCC(=O)O)C(=O)N[C@@H](CC(N)=O)C(=O)[C@@H](Cc2ccccc2)NC(=O)[C@H](Cc2ccccc2)NC(=O)[C@@H]2CCCN2C(=O)[C@@H](Cc2ccccc2)NC1=O,-1.39

# Source: the supplement of paper PMC3741180, “A Novel High Throughput Biochemical Assay to Evaluate the HuR Protein-RNA Complex Formation” (PLoS ONE, 2013)
